Values quoted from earlier work, collected in patent EP3292864A1, “MODIFIED RELEASE TABLET COMPOSITION COMPRISING MIRABEGRON” (Synthon B.V., priority 2017, dated 2018).
The name of at least one read-out is uncertain.

Details: per BCS class

Nc1nc(CC(=O)Nc2ccc(CCNC[C@H](O)c3ccccc3)cc2)cs1 [Mirabegron, (R)-2-(2-aminothiazol-4-yl)-4'-[2-[(2-hydroxy-2-phenylethyl)amino]ethyl]acetic acid anilide]
permeability: low permeability
